Laboratory results from patent US12448491B2, “Nano-patterend conductive polymer substrate with improved cell alignment, maturity, adhesion, and connectivity and method for manufacturing same” (priority 2022, dated 2025).

Key:
[1] = tested on: human-induced pluripotent stem cell-cardiomyocytes (hiPSC-CMs); experiment: Drug screening for hiPSC-CMs on bare and embedded PDMS; type: cell-based
Description: Since pre-clinical studies on rats could not completely predict effects on the human heart, human-induced pluripotent stem cell-cardiomyocytes (hiPSC-CMs) had significant advantages over the use of animal models. To further investigate the responses of different drugs on immature and mature cardiomyocytes in human cells, hiPSC-CMs were cultured.

[2] = tested on: neonatal rat ventricular myocytes (NRVMs); experiment: Comparison of NRVM and hiPSC-CM in drug test (NRVM); type: cell-based
Excerpt: (§1) There are several similarities and differences in the drug response between animal and human cardiomyocytes.

[3] = tested on: human-induced pluripotent stem cell-cardiomyocytes (hiPSC-CMs); experiment: Comparison of NRVM and hiPSC-CM in drug test (hiPSC-CM); type: cell-based; details: human cells
Excerpt: as §1

cardiomyocytes = experiment: Drug screening on bare and embedded PDMS cantilevers (beat displacement)

Compound: Cc1cccc(CCN2CCC(C(=O)c3ccc(NS(C)(=O)=O)cc3)CC2)n1 [E-4031]
- beat behavior with increasing dose ([1]; hiPSC-CMs on bare PDMS): irregular beat behavior
- contraction behavior at high concentration of drug ([1]; hiPSC-CMs on embedded PDMS): stable contraction behavior
- tendency of beat frequency and contraction with increasing drug ([2]; animal cells): decrease the beat frequency
- change of contraction force / displacement ([2]; animal experiment, (b) of FIG. 20C): reduction of contraction force was observed
- tendency of beat frequency and contraction with increasing drug [3]: decrease the beat frequency
- change of contraction force / displacement ([3]; (b) of FIG. 20C): change in displacement was not observed
- effect on contraction force and beating cycle (cardiomyocytes; bare PDMS as control): a decrease in contraction force, and the beating cycle was irregularly changed as the drug dose increased
- effect on contraction force and beating cycle (cardiomyocytes; cultured on AgNW-embedded PDMS): little change in the beating cycle, and the magnitude of contraction force was not significantly affected
